In paper PMC11758221 (ACS Central Science, 2024):

Experiments:
[1] = Circular dichroism spectroscopy, secondary structure and helicity; type: physicochemical; conditions: 50 μM peptide in 30% trifluoroethanol in aqueous buffer (100 mM NaF, 10 mM KH2PO4 pH 7.5), 25 °C; for calculated helicity (α-helix percentage, Hα): CD, averaged from 3 scans, Luo-Baldwin formula
[2] = general procedure: Fmoc solid-phase peptide synthesis; Rink Amide ProTide resin; HBTU/HOBt, DIPEA; conditions: whole synthesis, scale 0.1 mmol
[3] = general procedure: Fmoc solid-phase peptide synthesis; Rink Amide ProTide resin (0.6 mmol/g); 2-chlorotrityl-hydrazino resin (0.76 mmol/g) for cyclic peptide precursor; HBTU/HOBt, DIPEA

GLRKRLRKFRNKIKEK-NH2 [sC18, reference compound]
calculated helicity (α-helix percentage, Hα) [1]: 70%

CC[C@H](C)[C@H](NC(=O)[C@H](CCCCN)NC(=O)[C@@H](NC(=O)[C@H](CCC(N)=O)NC(=O)[C@@H](N)CCCNC(=N)N)[C@@H](C)CC)C(=O)N[C@@H](Cc1c[nH]c2ccccc12)C(=O)N[C@@H](Cc1ccccc1)C(=O)N[C@@H](CCC(N)=O)C(=O)N[C@@H](CC(N)=O)C(=O)N[C@@H](CCCNC(=N)N)C(=O)N[C@@H](CCCNC(=N)N)C(=O)N[C@@H](CCSC)C(=O)N[C@@H](CCCCN)C(=O)N[C@@H](Cc1c[nH]c2ccccc12)C(=O)N[C@@H](CCCCN)C(=O)N[C@@H](CCCCN)C(N)=O [penetratin, reference compound]
calculated helicity (α-helix percentage, Hα) [1]: 61%

N=C(N)NCCC[C@H](NC(=O)CNC(=O)[C@@H](N)Cc1ccc(O)cc1)C(=O)N[C@@H](CCCCN)C(=O)N[C@@H](CCCCN)C(=O)N[C@@H](CCCNC(=N)N)C(=O)N[C@@H](CCCNC(=N)N)C(=O)N[C@@H](CCC(N)=O)C(=O)N[C@@H](CCCNC(=N)N)C(=O)N[C@@H](CCCNC(=N)N)C(=O)N[C@@H](CCCNC(=N)N)C(=O)N1CCC[C@H]1C(=O)N[C@@H](CCC(N)=O)C(N)=O [TAT, reference compound]
secondary structure by CD spectrum [1]: unstructured in solution

PEPTIDE1{G.L.R.K.R.L.R.K.F.R.N.K.I.K.E.K.[am]}$$$$V2.0
isolated mass [2]: 104 mg
isolated yield [2]: 48%

KLYACSRYL
isolated mass [2]: 50 mg
isolated yield [2]: 45%

PEPTIDE1{R.Q.I.K.I.W.F.Q.N.R.R.M.K.W.K.K.[CysSNBD].[am]}$$$$V2.0
conjugation yield ([3]; conjugation step): 35%

PEPTIDE1{Y.G.R.K.K.R.R.Q.R.R.R.P.Q.[am]}$$$$V2.0
isolated mass ([3]; whole synthesis): 71 mg
isolated yield ([3]; whole synthesis, scale of the general procedure 0.1 mmol): 40%

For some of these results: Plain letter strings leave the end groups untold. For some of these results: Strings that start with PEPTIDE1 are HELM notation: dots part the residues, brackets hold end groups and non-standard residues. Where no end group is shown, it is not given here.
